Results published in patent publication US8513229B2, “4-Azetidinyl-1-phenyl-cyclohexane antagonists of CCR2” (Janssen Pharmaceutica NV, priority 2009, dated 2013).

How the values were obtained:
cell migration = experiment: Murine In vivo Cell Migration Assay; settings: 30 mpk, P.O. bid; human MCP-1 on small bowel serosa, 24 hours
Experimental: Murine In vivo Cell Migration Assay
Animals were orally dosed with vehicle or CCR2 antagonists at 3, 10 and 30 mg/kg bid. Animals underwent anesthesia and laparotomy. A distal loop of small bowel (5 cm in length) was gently eventrated onto moist sterile gauze. Synthetic human MCP-1 (1 mg/100 ml sterile PBS) or PBS alone was administered drop-wise onto the serosa of the eventrated loop. A suture knot was placed into the mesentery to mark the terminus of the treated area. Twenty-four hours later, the animal was sacrificed and the segment of bowel plus the adjacent region was removed. The tissue was opened along the mesenteric border, pinned flat and the mucosa removed. The remaining muscle layer was fixed briefly in 100% EtOH and then stained using Hanker-Yates reagent to detect myeloperoxidase-containing immune cells. At 30 mpk, P.O. bid, a compound is deemed efficacious if the inhibition of cell migration reaches 30% compared with vehicle-treated animals.

[1] = 30 mpk, p.o. bid; high-fat diet obese mice, 40 days treatment

With `O=C(CNC(=O)c1cccc(C(F)(F)F)c1)NC1CN(C2CCC(O)(c3ccccc3)CC2)C1` (centres unmarked) [Example #30, N-{[1-(4-Hydroxy-4-phenyl-cyclohexyl)-azetidin-3-ylcarbamoyl]-methyl}-3-trifluoromethyl-benzamide] the “blocking cell migration (efficacious if the inhibition of cell migration reaches 30% compared with vehicle-treated animals)” value (cell migration) was “efficacious” and the “reduce body weight (percent of weight loss vs vehicle-treated mice)” value [1] was over 8%.
